We go through two molecules from publication PMC3182922.

For experiment [1], the target named is T1, Glideosome-Associated Protein 45 (Toxoplasma gondii (endogenous in tachyzoites)) (UniProt Q7Z289).
T1 sequence: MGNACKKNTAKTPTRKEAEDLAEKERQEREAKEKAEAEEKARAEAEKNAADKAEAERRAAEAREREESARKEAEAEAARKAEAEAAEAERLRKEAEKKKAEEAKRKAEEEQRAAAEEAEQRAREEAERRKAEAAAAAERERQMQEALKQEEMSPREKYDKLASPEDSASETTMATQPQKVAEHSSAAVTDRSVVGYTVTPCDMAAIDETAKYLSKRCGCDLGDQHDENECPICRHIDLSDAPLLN
The experiment can be described thus: co-IP; anti-GAP45 rabbit IgG (non-specific rabbit IgG as control) with ProteinG paramagnetic microbeads, lysate of ELC1-HA expressing parasites; eluates stained with Sypro Ruby or probed by Western blot with anti-HA. In general terms: A western blot detects proteins with antibodies after separation by electrophoresis.

The target of experiment [2] is HA-tagged Essential Light Chain 1 (Toxoplasma gondii). The experiment can be described thus: co-IP; anti-HA antibody on paramagnetic MicroBeads, lysates of MLC1-HA or ELC1-HA expressing tachyzoites (wild type as control), 20 mM HEPES pH 7.4, 150 mM NaCl, 1% Triton X-100, 0.5% NP-40, 1 h at 4°C; Western blot with antibodies against MyoA, GAP45, MLC1.
Experiment [3] deals with HA-tagged Myosin Light Chain 1 (Toxoplasma gondii). The experiment is described as above.

No constants are given. Whether binding was seen depends on the method and setting. Binding seen in cells or lysates may run through a third protein. Binding calls can cover weak binding; strength is not graded here.

Turning to “HA-tagged Essential Light Chain 1 (Toxoplasma gondii)”, the binding result in experiment [1] is listed as “binds”.

B1: Glideosome-Associated Protein 45 (protein, UniProt Q7Z289 1-245)
chain: T1 sequence
Take B1: the binding entry in experiment [2] and in experiment [3] was “binds” in each case.
